Results are given in words; binding and its absence hold for the method and conditions named. Binding seen in cells or lysates may run through a third protein. Some entries that bind do so weakly or less than the wild type. For part of these data: Tags and fused reporters may be left off the sequences shown.

Sequences of proteins named here, by UniProt entry; tags and fusion partners are left off.
UniProt Q9Y508: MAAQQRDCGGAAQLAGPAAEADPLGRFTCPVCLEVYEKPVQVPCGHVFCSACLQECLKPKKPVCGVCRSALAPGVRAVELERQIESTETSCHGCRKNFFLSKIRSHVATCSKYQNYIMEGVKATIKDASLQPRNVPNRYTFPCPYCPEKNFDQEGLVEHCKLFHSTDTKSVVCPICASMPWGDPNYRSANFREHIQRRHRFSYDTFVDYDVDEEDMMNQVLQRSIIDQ

For one experiment, the target named is T1, GST-A20 (UniProt P21580).
T1 sequence: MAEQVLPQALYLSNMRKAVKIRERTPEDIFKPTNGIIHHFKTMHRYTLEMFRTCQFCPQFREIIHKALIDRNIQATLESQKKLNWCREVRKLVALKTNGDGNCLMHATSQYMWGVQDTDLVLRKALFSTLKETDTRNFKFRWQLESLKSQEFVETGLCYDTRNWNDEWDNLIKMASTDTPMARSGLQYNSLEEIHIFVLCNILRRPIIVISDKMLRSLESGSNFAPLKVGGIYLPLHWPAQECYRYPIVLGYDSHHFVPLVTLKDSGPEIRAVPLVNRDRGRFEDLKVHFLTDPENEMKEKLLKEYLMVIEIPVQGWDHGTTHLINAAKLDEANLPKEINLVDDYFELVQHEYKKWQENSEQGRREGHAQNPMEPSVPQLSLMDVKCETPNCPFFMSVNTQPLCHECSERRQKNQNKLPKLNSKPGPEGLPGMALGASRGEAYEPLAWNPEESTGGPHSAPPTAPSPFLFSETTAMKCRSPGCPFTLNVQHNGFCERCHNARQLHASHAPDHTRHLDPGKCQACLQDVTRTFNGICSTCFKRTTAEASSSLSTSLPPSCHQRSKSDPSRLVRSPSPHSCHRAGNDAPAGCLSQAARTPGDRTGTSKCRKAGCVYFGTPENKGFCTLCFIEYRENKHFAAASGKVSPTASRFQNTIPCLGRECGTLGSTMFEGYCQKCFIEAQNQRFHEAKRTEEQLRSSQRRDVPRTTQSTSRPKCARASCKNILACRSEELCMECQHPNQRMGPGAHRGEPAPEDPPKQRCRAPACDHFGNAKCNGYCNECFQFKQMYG
Nature of the experiment: pull-down; GST-A20 or GST fusion proteins with lysates of HEK293 cells overexpressing FLAG-RNF114 or FLAG-A20; only the target purified.

For experiment [1], the target named is T2, A20, endogenous in Jurkat T cells (human (endogenous in Jurkat)) (UniProt P21580).
T2 sequence: T1 sequence
Nature of the experiment: co-IP; endogenous proteins of Jurkat T cells; anti-A20 or anti-RNF114 antibodies cross-linked to Protein-G; lysis in 1% Igepal CA-630 buffer; unstimulated or stimulated with TNFα or CD3/CD28 antibodies.

The next experiment addresses AU5-RNF114 (human) (UniProt Q9Y508). Nature of the experiment: co-IP; HEK293 cells transfected with forms of FLAG-A20 and AU5-RNF114; anti-AU5 immunoprecipitation (Protein-G cross-linked with antibody); lysis in 1% Igepal CA-630 buffer; with or without TNFα for 20 min.

With FLAG-RNF114 (from UniProt Q9Y508 1-228), the binding result with GST-A20 is given as “binds”. With “RNF114, endogenous in Jurkat T cells (from UniProt Q9Y508 1-228)”, the binding entry in experiment [1] was “binds”.

B1: FLAG-A20 C-terminal (390-790) (domain or fragment, UniProt P21580 390-790)
chain: PNCPFFMSVNTQPLCHECSERRQKNQNKLPKLNSKPGPEGLPGMALGASRGEAYEPLAWNPEESTGGPHSAPPTAPSPFLFSETTAMKCRSPGCPFTLNVQHNGFCERCHNARQLHASHAPDHTRHLDPGKCQACLQDVTRTFNGICSTCFKRTTAEASSSLSTSLPPSCHQRSKSDPSRLVRSPSPHSCHRAGNDAPAGCLSQAARTPGDRTGTSKCRKAGCVYFGTPENKGFCTLCFIEYRENKHFAAASGKVSPTASRFQNTIPCLGRECGTLGSTMFEGYCQKCFIEAQNQRFHEAKRTEEQLRSSQRRDVPRTTQSTSRPKCARASCKNILACRSEELCMECQHPNQRMGPGAHRGEPAPEDPPKQRCRAPACDHFGNAKCNGYCNECFQFKQMYG
In the case of B1, the binding result with AU5-RNF114 (human) is “binds”.

The values are drawn from publication PMC4454333.
